This test is described as follows: qHTS Assay to Find Inhibitors of Chronic Active B-Cell Receptor Signaling. Conditions: ABC-DLBCL IkBa-CBG/CBR reporter, luminescence ratio (green luciferase fused to IkBa over red control in TMD8 lymphoma cells), 4 h. In outline:
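TMD8 ABC-DLBCL cells carrying doxycycline-inducible green luciferase fused to IkappaBalpha plus unfused red luciferase were exposed to compounds (up to 46 uM) for 4 hrs at 37C. Activity came from the overlap-corrected green/red luminescence ratio.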
(Quantitative high-throughput screening tests each substance at several concentrations.)

Where [1] appears, read: measured here: CBR red luminescence, cell number.
[2] abbreviates: measured here: IkBa-CBG green luminescence.

Values joined by “and” are separate entries in the source; they are usually repeats but may differ in a detail not shown here. Equal entries are not always repeated. Some of the results follow. The main result of the screen is listed elsewhere. These columns were measured beside it and carry no call. The list favours compounds with an active or inconclusive main result. The note in brackets gives the kind of curve behind each potency; many fits are weak.

By AC50 is commonly meant the midpoint of the concentration-response curve, whichever way the signal moves.

Consider `Cc1cc(C(=O)COC(=O)CCc2nc3ccccc3s2)c(C)n1C`, for which, under setting [1], the concentration at half-maximal activity (AC50) is 16.4 µM [rising, single point]. The same measure, in the same setting: next, `O=c1[nH]c2ccccc2c2nc3ccccn3c12`: 7.08 µM [falling, partial curve]; `Cc1c(C(=O)N(Cc2cccc(Br)c2)C2CCS(=O)(=O)C2)oc2ccccc12` (centres undefined): 3.16 µM [falling, single point].

For `C/C=C\C(=O)Nc1cccc(C2=NOC3(C2)C[C@@H](C(N)=O)N(C(=O)c2ccccc2)C3)c1` (some centres undefined), the AC50 under setting [1] is 12.6 µM [rising, single point]. For `O=C(O)[C@H](Cc1ccccc1)NC(=O)C(c1ccccc1)(c1ccccc1)c1ccccc1`, the AC50 under setting [1] is 0.501 µM [falling, full curve, poor fit]. The same measure, in the same setting: to `COc1ccc2cc(C3(C)NC(=O)NC3=O)ccc2c1` (centres undefined) belongs 35.5 µM [rising, single point]; to `O=C(/C=C/c1ccccc1)N(c1ccccn1)C1CCCCC1`, 6.51 µM [rising, full curve, poor fit]. The same measure, in the same setting: to `CN(CC(=O)NCc1ccncc1)S(=O)(=O)c1cc(Cl)ccc1Cl` belongs 0.891 µM [rising, full curve]. For the compound `Cc1cc(Cl)ccc1OCC(=O)NNC(=O)c1ccco1`, the AC50 under setting [1] was 6.31 µM [rising, single point]. The same measure, in the same setting: next, `CC1CN(c2cc3nccnc3cc2F)CC(C)O1` (centres undefined): 2.31 µM [rising, partial curve, poor fit]. Still for that read-out and setting: next, `O=C(CN1CCN(c2ccc(F)cc2)CC1)Nc1ccccc1C(=O)NCCc1ccccc1`: 6.51 µM [rising, single point]. As for `CCN(CC)c1ccc(Nc2nc(N3CCOCC3)c3ccccc3n2)cc1`, the half-maximal activity concentration (AC50) under setting [2] was 3.26 µM [rising, partial curve, poor fit]. Take `CCC(=O)N1CCN(c2ccccc2NC(=O)COc2cc(C)ccc2C(C)C)CC1`: the concentration at half-maximal activity (AC50) under setting [1] is 29.1 µM [falling, single point]. Same read-out and setting: next, `Cc1c(CCC(C)C)c(=O)n2c([nH]c3ccccc32)c1C#N`: 1.84 µM [rising, full curve].

As for `Clc1ccc2c(c1)[C@H]1OCC[C@H]1[C@@H](c1ccco1)N2`, under setting [2], the AC50 was 18.4 µM [rising, partial curve, poor fit]. Consider `Cc1cccc(C(=O)Nc2ccc(C(=O)N/N=C/c3cccnc3)cc2)c1`, for which the concentration at half-maximal activity (AC50) under setting [1] was 6.31 µM [falling, full curve, poor fit]. Still for that read-out and setting: next, `COc1ccc(NC(=O)C(=O)c2cn(CC(=O)N3CCOCC3)c3ccccc23)cc1OC`: 7.08 µM [falling, partial curve]; `O=C(NCc1ccco1)c1ccc2c(c1)C(=O)N(C1CCCCC1)C2=O`: 3.16 µM [rising, single point]; `Cc1cc2nc(-c3ccc[nH]c3=O)[nH]c2cc1C`: 7.94 µM [falling, partial curve].

Consider `CS(=O)(=O)c1ccccc1-c1nc(-c2cccc(Cl)c2)no1`, for which, under setting [1], the AC50 was 10 µM [rising, partial curve, poor fit]. On the same count and under the same terms, next, `O=C(Nc1ccc(-c2noc(CCc3ccccc3)n2)cc1)c1cccnc1`: 6.51 µM [rising, single point]. Take `CN(C(=O)COC(=O)c1cccc(S(=O)(=O)N2CCCCCC2)c1)C1CCS(=O)(=O)C1` (centres undefined): the AC50 runs as follows: under setting [1], 29.1 µM [rising, single point]; under setting [2], 14.6 µM [falling, partial curve, poor fit]. In the case of `COc1ccc(/C=C(/C#N)C(=O)Nc2cccnc2)cc1OC`, the concentration at half-maximal activity (AC50) under setting [1] was 29.1 µM [rising, single point]. With `COc1ccc(/C=N/N2C(=N)SCC2=O)cc1`, the half-maximal activity concentration (AC50) under setting [1] was 6.31 µM [rising, single point].

Regarding `COC(=O)[C@@]1(Cc2ccccc2)[C@@H]2C(=CC(=O)[C@H]2CC(=O)C(=O)N(C)C)CN1C(=O)c1ccccc1`, the concentration at half-maximal activity (AC50) under setting [1] is 8.2 µM [falling, partial curve]. The same measure, in the same setting: to `CC1=CC(C)(C)n2c(O)c(N=NC(N)=S)c3c(C)c(C)cc1c32` belongs 22.4 µM [falling, partial curve, poor fit].

On to `Cc1cc(C)c2c(=O)n(CC(=O)N3CCC(N4CCCCC4)CC3)sc2n1`, for which the half-maximal activity concentration (AC50) under setting [1] is 18.4 µM [falling, single point]. Still for that read-out and setting: to `O=C1Nc2ccccc2/C1=C/c1ccccc1F` belongs 14.1 µM [falling, single point]; to `COc1cccc(NC(=O)c2cccc(N3C(=O)C4CCC(C)CC4C3=O)c2)c1` (centres undefined), 20 µM [falling, partial curve, poor fit]. For `O=C(CCCC(=O)Nc1cccnc1)Nc1cccnc1`, under setting [1], the AC50 is 0.00517 µM [falling, full curve, poor fit]. Same read-out and setting: to `Cc1cc(C)cc(NC(=O)[C@H](NC(=O)[C@@H]2Cc3ccccc3CN2)c2ccccc2)c1` belongs 15.8 µM [falling, single point]; to `COc1ccc(/C=C/C(=O)NC(C)C)cc1Br`, 2.59 µM [rising, partial curve, poor fit].

`Cc1cccc(-c2nc(C#N)c(N3CCCCC3)o2)c1`: the AC50 under setting [1] was 7.08 µM [rising, partial curve]. The same measure, in the same setting: to `CCOC(=O)c1cnc2c(C)cccc2c1NCCc1ccc(OC)c(OC)c1` belongs 29.1 µM [falling, single point] and 1.12 µM [falling, full curve, poor fit]; to `Cc1cc(C)nc(NC2=NC3CCCCC3N2)n1` (centres undefined), 25.9 µM [falling, single point]; to `CCN(c1ncnc2c1cnn2-c1cc(Cl)ccc1C)C1CCCCC1`, 0.398 µM [rising, full curve, poor fit]. Still for that read-out and setting: next, `O=C1CC(c2ccccc2)CC(O)=C1C=Nc1ccccc1O` (centres undefined): 0.562 µM [falling, full curve, poor fit]; `Cc1cc(NC2C3CC4CC(C3)CC2C4)n2nnnc2n1` (centres undefined): 12.6 µM [rising, single point]; `CC(C)CN(C(=O)C(C)N1C(=O)c2ccccc2C1=O)c1c(N)n(Cc2ccccc2)c(=O)[nH]c1=O` (centres undefined): 20.6 µM [falling, partial curve]. On to `COCCCN(C(=S)NC(=O)C(C)(C)C)c1c(N)n(Cc2ccccc2)c(=O)[nH]c1=O`, for which, under setting [1], the half-maximal activity concentration (AC50) was 2.82 µM [rising, partial curve]. On the same count and under the same terms, next, `COc1ccc(C)cc1C(=O)C1CC(C(=O)O)C(C)(C)C1C` (centres undefined): 25.1 µM [rising, partial curve, poor fit]. Still for that read-out and setting: to `COc1cc(C(=O)NCCc2c[nH]c3ccccc23)ccc1OCc1c(C)noc1C` belongs 12.6 µM [falling, partial curve, poor fit]; to `Cc1ccc(C(=O)/C=C/Nc2ccccc2C(N)=O)cc1`, 11.2 µM [falling, partial curve]. For `O=C(O)c1ccc(-n2cc(-c3cc4ccccc4oc3=O)[nH]c2=S)cc1`, the half-maximal activity concentration (AC50) under setting [1] was 0.355 µM [falling, full curve].

Take `CC(C)N(C(=O)COC(=O)[C@H](C)NC(=O)c1ccco1)c1ccccc1`: under setting [1], the AC50 was 2.82 µM [falling, partial curve].

On to `CC1(C)CCSC(/C=C/c2ccccc2)=N1`, for which the AC50 under setting [1] was 12.6 µM [falling, partial curve]. On the same count and under the same terms, to `COc1ccccc1C(=O)OCCCN=C1NS(=O)(=O)c2ccccc21` belongs 2 µM [rising, partial curve, poor fit]. Turning to `CCN(C(=O)c1ccc(NC(C)=O)cc1)c1ccccc1C`, the concentration at half-maximal activity (AC50) under setting [2] is 8.2 µM [rising, partial curve, poor fit]. In the case of `O=C(Nc1ccc2c(c1)OCO2)c1cc(Cl)ccn1`, under setting [1], the half-maximal activity concentration (AC50) is 0.116 µM [rising, full curve, poor fit]. The same measure, in the same setting: to `Cc1ccc(O)c(NC(=O)c2noc3c2CCCCC3)c1` belongs 0.398 µM [rising, full curve, poor fit].

With `Cc1c(C(=O)O)cccc1-n1c(C)cc(/C=C(/C#N)C(=O)NCc2ccccc2)c1C`, the concentration at half-maximal activity (AC50) under setting [1] was 35.5 µM [falling, single point]. Same read-out and setting: next, `Cc1cc(N)ccc1N1CCCC1`: 6.31 µM [falling, single point]; `COc1ccc(NC(=O)CN2C(=O)NC(C)(c3ccc4c(c3)OCCO4)C2=O)cc1S(N)(=O)=O` (centres undefined): 29.1 µM [rising, single point]; `COc1cccc2c1nc(C)c1cc(C)oc12`: 29.1 µM [rising, single point]. Still for that read-out and setting: next, `Cc1ccccc1NC(=O)CSc1nc(N)c(C#N)c(-c2cccs2)c1C#N`: 0.231 µM [falling, partial curve, poor fit]; `Cc1[nH]n(-c2ccccc2)c(=O)c1/C=N/n1c(C)nc2ccccc2c1=O`: 35.5 µM [falling, partial curve, poor fit]; `CC(C)n1cc(/C=N/Nc2ccc(Cl)c(C(=O)O)c2)c2ccccc21`: 7.94 µM [falling, partial curve]. As for `COc1ccc(C(=O)COC(=O)[C@H](C)Nc2ccc(C(F)(F)F)cc2[N+](=O)[O-])cc1`, the AC50 under setting [1] was 10.3 µM [rising, partial curve, poor fit]. Consider `Cc1c(CCOC(=O)c2cc([N+](=O)[O-])cc([N+](=O)[O-])c2)sc[n+]1CCCCS(=O)(=O)[O-]`, for which the AC50 under setting [1] is 3.98 µM [rising, full curve, poor fit]. Same read-out and setting: to `CCOC(=O)c1cc(CNC(=O)c2c(C)oc3c2CCCC3)c(C)o1` belongs 35.5 µM [falling, single point]. Regarding `Cc1ccc(CNC(=O)C(=O)c2cn(CC(=O)N3CCOCC3)c3ccccc23)cc1`, the concentration at half-maximal activity (AC50) under setting [1] is 1.41 µM [falling, full curve, poor fit]. On the same count and under the same terms, next, `O=C(Nc1ccccc1)c1ccc(-n2cnnn2)cc1`: 12.6 µM [falling, partial curve, poor fit]; `Cc1[nH]c2ccccc2c1C(=O)COC(=O)c1ccccc1O`: 6.51 µM [rising, single point].

Values taken from PubChem BioAssay AID493014 (National Center for Advancing Translational Sciences (NCATS), 2011).
